Some of the results follow. The calls rarely recur for the same compound in another form.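 Kinases, fused to nanoluciferase, were expressed in K562 cells; luminescence was measured every 4 h from 2 to 18 h as percent of control (DMSO = 100%, positive control = 0%). A time point is decreased if signal falls significantly (2 sigma). Hits were called by the authors by a rule that is not shown; the count of time points alone does not decide it.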
Tests used:
Experiment in all cases: kinase-Nluc reporter destabilization hit call (1 = scored as downregulated) (binary); higher = compound decreases kinase abundance
Details in all cases: K562; 2-18 h
ABL1 = ABL1 (UniProt P00519)
AKT1 = AKT1 (UniProt P31749)
ALK = ALK (UniProt Q9UM73)
ARAF = ARAF (UniProt P10398)
AURKA = AURKA (UniProt O14965)
AURKB = AURKB (UniProt Q96GD4)
AURKC = AURKC (UniProt Q9UQB9)
BLK = BLK (UniProt P51451)
BMX = BMX (UniProt P51813)
BRAF = BRAF (UniProt P15056)
BRAF_V600E = system: BRAF_V600E
BTK = BTK (UniProt Q06187)
CAMK2A = CAMK2A (UniProt Q9UQM7)
CAMK2G = CAMK2G (UniProt Q13555)
CDK10 = CDK10 (UniProt Q15131)
CDK2 = CDK2 (UniProt P24941)
CDK3 = CDK3 (UniProt Q00526)
CDK4 = CDK4 (UniProt P11802)
CDK5 = CDK5 (UniProt Q00535)
CDK6 = CDK6 (UniProt Q00534)

Sequences of proteins named here, by UniProt entry; tags and fusion partners are left off. A change or cut given only in a name is not applied to a line headed by its entry.
UniProt P31749: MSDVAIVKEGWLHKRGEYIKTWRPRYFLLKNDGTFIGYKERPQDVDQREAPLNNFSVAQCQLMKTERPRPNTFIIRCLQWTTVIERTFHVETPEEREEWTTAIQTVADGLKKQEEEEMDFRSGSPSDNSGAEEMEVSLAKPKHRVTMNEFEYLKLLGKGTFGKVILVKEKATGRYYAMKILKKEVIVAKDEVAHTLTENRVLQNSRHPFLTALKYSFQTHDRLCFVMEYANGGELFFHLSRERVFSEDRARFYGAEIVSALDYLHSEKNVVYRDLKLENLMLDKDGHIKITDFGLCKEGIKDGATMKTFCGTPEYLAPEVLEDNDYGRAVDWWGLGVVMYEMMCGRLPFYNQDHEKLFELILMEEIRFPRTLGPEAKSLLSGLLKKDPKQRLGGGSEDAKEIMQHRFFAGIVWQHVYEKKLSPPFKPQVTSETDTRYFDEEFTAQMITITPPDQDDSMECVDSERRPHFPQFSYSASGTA
UniProt Q9UM73: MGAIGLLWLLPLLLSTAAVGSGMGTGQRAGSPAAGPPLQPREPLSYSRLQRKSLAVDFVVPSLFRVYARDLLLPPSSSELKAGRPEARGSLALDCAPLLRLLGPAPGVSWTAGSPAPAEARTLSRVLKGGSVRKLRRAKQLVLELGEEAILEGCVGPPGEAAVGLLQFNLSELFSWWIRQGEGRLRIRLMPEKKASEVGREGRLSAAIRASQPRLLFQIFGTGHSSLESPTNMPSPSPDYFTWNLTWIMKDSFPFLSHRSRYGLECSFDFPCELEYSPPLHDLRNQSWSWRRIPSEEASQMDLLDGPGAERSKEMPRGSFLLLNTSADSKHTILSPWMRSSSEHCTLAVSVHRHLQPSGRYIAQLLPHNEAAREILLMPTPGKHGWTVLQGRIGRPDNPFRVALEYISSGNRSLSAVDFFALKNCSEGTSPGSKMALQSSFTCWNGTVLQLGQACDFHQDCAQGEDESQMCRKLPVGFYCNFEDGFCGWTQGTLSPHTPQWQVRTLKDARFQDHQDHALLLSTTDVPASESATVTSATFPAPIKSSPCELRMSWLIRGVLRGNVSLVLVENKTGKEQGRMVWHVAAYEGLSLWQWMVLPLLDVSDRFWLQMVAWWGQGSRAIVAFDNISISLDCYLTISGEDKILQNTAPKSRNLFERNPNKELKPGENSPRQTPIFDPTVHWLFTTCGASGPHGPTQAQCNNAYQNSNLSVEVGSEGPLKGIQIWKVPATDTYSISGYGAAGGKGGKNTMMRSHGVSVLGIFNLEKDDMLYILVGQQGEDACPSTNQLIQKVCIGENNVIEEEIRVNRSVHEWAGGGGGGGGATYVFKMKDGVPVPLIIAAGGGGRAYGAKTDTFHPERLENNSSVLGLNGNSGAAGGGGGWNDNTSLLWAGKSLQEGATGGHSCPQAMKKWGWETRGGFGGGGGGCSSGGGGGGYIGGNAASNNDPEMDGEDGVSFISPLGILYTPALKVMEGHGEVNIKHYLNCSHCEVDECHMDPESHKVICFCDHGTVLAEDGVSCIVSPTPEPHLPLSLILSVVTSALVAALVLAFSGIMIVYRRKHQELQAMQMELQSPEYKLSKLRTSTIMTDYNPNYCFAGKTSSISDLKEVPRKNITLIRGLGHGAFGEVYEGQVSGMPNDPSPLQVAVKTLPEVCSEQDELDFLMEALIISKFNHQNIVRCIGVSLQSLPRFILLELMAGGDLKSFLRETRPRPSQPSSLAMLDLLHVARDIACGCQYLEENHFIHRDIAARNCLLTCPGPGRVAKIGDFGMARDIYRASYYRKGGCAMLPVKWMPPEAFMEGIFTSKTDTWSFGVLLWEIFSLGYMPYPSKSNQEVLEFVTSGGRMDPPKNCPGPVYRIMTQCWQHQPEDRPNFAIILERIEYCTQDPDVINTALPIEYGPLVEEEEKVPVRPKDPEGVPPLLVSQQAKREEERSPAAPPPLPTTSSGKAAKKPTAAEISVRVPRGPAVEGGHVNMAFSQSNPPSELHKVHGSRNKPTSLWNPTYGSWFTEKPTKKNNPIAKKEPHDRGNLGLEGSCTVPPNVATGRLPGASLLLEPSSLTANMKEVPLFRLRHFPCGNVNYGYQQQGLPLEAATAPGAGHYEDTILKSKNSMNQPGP
UniProt Q96GD4, whole entry: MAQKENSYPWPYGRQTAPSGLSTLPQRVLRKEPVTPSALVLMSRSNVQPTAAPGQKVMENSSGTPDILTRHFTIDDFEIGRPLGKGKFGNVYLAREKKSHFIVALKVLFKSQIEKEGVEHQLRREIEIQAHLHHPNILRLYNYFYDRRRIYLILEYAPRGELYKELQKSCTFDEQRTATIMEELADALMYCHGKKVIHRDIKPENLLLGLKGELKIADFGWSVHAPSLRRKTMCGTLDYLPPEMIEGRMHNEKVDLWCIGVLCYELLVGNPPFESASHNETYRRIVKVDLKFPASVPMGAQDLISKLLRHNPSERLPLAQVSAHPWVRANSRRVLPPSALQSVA
UniProt P51451: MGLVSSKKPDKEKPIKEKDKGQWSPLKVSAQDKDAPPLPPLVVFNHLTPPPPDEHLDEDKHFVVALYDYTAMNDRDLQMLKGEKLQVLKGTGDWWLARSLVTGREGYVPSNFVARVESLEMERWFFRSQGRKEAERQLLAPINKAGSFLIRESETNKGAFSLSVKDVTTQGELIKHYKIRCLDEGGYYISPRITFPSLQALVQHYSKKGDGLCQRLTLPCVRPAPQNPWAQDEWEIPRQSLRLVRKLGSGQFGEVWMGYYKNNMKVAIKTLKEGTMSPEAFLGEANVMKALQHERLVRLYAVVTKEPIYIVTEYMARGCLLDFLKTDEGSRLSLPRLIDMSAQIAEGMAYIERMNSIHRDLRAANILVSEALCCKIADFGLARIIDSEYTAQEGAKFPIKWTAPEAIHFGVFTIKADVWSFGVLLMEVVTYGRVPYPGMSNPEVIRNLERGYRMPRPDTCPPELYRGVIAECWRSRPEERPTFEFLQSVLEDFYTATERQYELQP
UniProt P51813: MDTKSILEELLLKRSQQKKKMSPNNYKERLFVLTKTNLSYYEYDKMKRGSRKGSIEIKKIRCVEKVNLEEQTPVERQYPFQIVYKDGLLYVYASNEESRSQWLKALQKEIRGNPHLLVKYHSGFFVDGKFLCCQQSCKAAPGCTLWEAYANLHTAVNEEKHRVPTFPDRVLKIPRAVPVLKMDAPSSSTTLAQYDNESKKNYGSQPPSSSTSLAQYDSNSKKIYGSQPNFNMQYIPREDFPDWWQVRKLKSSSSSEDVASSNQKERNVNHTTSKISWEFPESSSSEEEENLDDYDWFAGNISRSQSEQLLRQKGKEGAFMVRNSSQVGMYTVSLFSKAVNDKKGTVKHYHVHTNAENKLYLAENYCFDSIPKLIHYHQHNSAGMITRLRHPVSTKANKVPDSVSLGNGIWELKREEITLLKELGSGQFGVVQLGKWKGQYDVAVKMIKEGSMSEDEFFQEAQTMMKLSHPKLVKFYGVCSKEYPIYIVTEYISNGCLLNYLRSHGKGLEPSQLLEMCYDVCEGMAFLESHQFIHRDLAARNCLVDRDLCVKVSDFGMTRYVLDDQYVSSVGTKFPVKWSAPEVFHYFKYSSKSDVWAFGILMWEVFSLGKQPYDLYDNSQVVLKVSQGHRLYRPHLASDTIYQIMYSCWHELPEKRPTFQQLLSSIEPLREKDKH
UniProt P15056, whole entry, looked up: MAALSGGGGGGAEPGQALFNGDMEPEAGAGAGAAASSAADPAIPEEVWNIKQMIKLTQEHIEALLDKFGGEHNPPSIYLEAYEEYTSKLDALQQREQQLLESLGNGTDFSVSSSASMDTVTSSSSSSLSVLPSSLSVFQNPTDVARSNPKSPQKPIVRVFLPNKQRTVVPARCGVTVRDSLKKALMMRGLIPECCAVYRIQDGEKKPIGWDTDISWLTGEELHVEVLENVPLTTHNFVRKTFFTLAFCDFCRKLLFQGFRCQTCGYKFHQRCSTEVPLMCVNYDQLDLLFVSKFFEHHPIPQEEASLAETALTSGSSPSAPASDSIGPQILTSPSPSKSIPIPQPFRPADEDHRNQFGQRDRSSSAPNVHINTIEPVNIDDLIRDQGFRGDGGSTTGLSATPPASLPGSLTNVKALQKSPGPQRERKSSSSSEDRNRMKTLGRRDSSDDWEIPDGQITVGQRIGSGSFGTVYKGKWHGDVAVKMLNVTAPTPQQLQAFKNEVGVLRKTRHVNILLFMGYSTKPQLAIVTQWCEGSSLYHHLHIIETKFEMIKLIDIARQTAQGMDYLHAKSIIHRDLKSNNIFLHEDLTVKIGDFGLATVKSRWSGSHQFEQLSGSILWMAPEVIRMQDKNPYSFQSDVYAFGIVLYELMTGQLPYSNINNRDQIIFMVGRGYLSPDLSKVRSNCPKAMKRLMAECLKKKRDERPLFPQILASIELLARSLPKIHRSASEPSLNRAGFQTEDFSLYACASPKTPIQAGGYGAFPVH
UniProt Q9UQM7, whole entry: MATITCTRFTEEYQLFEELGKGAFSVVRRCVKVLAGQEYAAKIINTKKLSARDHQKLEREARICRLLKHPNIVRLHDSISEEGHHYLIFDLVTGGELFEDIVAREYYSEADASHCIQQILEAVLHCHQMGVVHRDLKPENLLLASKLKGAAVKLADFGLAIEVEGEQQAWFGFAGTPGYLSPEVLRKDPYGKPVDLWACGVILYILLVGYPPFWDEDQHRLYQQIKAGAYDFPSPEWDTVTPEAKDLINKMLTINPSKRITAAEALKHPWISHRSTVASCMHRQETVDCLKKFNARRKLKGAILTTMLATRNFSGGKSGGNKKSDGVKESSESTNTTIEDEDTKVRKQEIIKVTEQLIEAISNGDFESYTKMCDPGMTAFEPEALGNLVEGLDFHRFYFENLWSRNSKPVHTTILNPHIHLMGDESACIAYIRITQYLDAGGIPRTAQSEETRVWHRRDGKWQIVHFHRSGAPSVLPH
UniProt Q13555: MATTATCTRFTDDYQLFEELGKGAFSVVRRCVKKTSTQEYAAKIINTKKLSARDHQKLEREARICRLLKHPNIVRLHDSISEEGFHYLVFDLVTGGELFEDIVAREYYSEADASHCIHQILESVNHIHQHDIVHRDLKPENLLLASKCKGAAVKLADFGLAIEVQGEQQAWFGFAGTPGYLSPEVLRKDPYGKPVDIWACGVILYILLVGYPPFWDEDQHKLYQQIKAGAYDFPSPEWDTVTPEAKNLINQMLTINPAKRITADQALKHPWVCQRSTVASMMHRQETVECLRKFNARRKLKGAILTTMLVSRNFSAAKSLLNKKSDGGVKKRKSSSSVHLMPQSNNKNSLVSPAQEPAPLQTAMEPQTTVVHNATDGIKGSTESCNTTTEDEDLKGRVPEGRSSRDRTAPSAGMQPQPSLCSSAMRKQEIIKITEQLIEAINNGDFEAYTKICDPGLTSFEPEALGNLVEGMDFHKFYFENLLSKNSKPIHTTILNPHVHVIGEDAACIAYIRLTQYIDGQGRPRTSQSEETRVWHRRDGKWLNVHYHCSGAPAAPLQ
UniProt P11802: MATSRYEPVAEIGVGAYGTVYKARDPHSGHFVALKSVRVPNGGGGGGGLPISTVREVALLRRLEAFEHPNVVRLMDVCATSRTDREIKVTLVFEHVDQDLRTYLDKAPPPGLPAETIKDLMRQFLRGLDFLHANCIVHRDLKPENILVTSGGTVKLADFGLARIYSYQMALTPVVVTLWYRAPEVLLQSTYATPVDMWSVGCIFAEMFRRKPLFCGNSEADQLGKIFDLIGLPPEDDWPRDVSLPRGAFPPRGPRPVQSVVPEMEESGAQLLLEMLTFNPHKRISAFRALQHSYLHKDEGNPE
UniProt Q00535, whole entry, looked up: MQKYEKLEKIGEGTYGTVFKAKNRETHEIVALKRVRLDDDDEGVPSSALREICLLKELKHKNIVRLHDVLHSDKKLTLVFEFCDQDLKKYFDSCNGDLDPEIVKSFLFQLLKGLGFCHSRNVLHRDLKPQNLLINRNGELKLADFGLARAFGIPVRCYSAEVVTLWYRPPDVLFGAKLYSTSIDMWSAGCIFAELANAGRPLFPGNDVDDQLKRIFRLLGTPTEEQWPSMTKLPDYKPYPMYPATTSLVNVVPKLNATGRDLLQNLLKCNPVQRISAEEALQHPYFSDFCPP
UniProt Q00534, whole entry: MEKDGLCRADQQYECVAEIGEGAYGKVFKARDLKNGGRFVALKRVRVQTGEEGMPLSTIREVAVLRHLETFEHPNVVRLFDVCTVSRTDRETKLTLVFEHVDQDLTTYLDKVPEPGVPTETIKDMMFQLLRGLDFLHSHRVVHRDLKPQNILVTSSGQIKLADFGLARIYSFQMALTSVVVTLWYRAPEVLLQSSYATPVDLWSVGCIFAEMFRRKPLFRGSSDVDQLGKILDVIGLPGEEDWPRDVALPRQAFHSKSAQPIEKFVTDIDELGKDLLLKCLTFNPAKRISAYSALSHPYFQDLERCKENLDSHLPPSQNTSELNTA

Measured: kinase-Nluc reporter destabilization hit call

Cc1ccc(Oc2nc3cc(-c4ccc5c(ccn5C)c4)c(Cl)cc3[nH]2)cc1C(=O)O (10 µM)
inactive: ABL1 = 0 | AKT1 = 0 | ALK 0 | ARAF 0 | AURKA 0 | AURKB 0 | AURKC 0 | BLK 0 | BMX 0 | BRAF 0 | BRAF_V600E 0 | BTK 0 | CAMK2A 0 | CAMK2G 0 | CDK10 = 0 | CDK2 = 0 | CDK3 = 0 | CDK4 = 0 | CDK5 = 0 | CDK6 = 0

Cc1ccc(Nc2cc(-c3cccc(N4C(=O)c5ccccc5C4=O)c3)ncn2)cc1NS(C)(=O)=O (10 µM)
inactive: ABL1 = 0 | AKT1 = 0 | ALK 0 | ARAF 0 | AURKA 0 | AURKB 0 | AURKC 0 | BLK 0 | BMX 0 | BRAF 0 | BRAF_V600E 0 | BTK 0 | CAMK2A 0 | CAMK2G 0 | CDK10 = 0 | CDK2 = 0 | CDK3 = 0 | CDK4 = 0 | CDK5 = 0 | CDK6 = 0

Cc1ccc(S(=O)(=O)/C=C/C#N)cc1 (10 µM)
inactive: ABL1 = 0 | AKT1 = 0 | ALK 0 | ARAF 0 | AURKA 0 | AURKB 0 | AURKC 0 | BLK 0 | BMX 0 | BRAF 0 | BRAF_V600E 0 | BTK 0 | CAMK2A 0 | CAMK2G 0 | CDK10 = 0 | CDK2 = 0 | CDK3 = 0 | CDK4 = 0 | CDK5 = 0 | CDK6 = 0

CN(CC(=O)N(Cc1ccc(C2CCCCC2)cc1)c1ccc(C(=O)O)cc1)S(=O)(=O)c1c(F)c(F)c(F)c(F)c1F (2.5 µM)
inactive: ABL1 = 0 | AKT1 = 0 | ALK 0 | ARAF 0 | AURKA 0 | AURKB 0 | AURKC 0 | BLK 0 | BMX 0 | BRAF 0 | BRAF_V600E 0 | BTK 0 | CAMK2A 0 | CAMK2G 0 | CDK10 = 0 | CDK2 = 0 | CDK3 = 0 | CDK4 = 0 | CDK5 = 0 | CDK6 = 0

Cc1cc([C@H](C)Nc2ccccc2)c2oc(N3CCOCC3)cc(=O)c2c1 (10 µM)
inactive: ABL1 = 0 | AKT1 = 0 | ALK 0 | ARAF 0 | AURKA 0 | AURKB 0 | AURKC 0 | BLK 0 | BMX 0 | BRAF 0 | BRAF_V600E 0 | BTK 0 | CAMK2A 0 | CAMK2G 0 | CDK10 = 0 | CDK2 = 0 | CDK3 = 0 | CDK4 = 0 | CDK5 = 0 | CDK6 = 0

CO[C@H]1C[C@@H]2CC[C@@H](C)[C@@](O)(O2)C(=O)C(=O)N2CCCC[C@H]2C(=O)O[C@H]([C@H](C)C[C@@H]2CC[C@@H](O)[C@H](OC)C2)CC(=O)[C@H](C)/C=C(\C)[C@@H](O)[C@@H](OC)C(=O)[C@H](C)C[C@H](C)/C=C/C=C/C=C/1C [Rapamycin] (10 µM)
inactive: ABL1 = 0 | AKT1 = 0 | ALK 0 | ARAF 0 | AURKA 0 | AURKB 0 | AURKC 0 | BLK 0 | BMX 0 | BRAF 0 | BRAF_V600E 0 | BTK 0 | CAMK2A 0 | CAMK2G 0 | CDK10 = 0 | CDK2 = 0 | CDK3 = 0 | CDK4 = 0 | CDK5 = 0 | CDK6 = 0

COc1ccc(-c2ccc3c(N4CCOC[C@@H]4C)nc(N4CCOC[C@@H]4C)nc3n2)cc1CO (2.5 µM)
inactive: AKT1 = 0 | ALK 0 | ARAF 0 | AURKA 0 | AURKB 0 | AURKC 0 | BLK 0 | BMX 0 | BRAF 0 | BRAF_V600E 0 | BTK 0 | CAMK2A 0 | CAMK2G 0 | CDK10 = 0 | CDK2 = 0 | CDK3 = 0 | CDK4 = 0 | CDK5 = 0 | CDK6 = 0
active: ABL1 = 1

Cc1cc(Nc2cc3ncccc3c(N[C@@H]3C[C@H]4CC[C@@H](C3)N4CCC#N)n2)n[nH]1 [Izencitinib] (10 µM)
inactive: ABL1 = 0 | AKT1 = 0 | ALK 0 | ARAF 0 | AURKA 0 | AURKB 0 | AURKC 0 | BLK 0 | BMX 0 | BRAF 0 | BRAF_V600E 0 | BTK 0 | CAMK2A 0 | CAMK2G 0 | CDK10 = 0 | CDK2 = 0 | CDK3 = 0 | CDK4 = 0 | CDK5 = 0 | CDK6 = 0

CC(C)=CC(=O)CCC(=O)N1CCN(Cc2cc3nc(-c4cccc5[nH]ncc45)nc(N4CCOCC4)c3s2)CC1 (10 µM)
active: BRAF 1 | CDK6 = 1
inactive: ABL1 = 0 | AKT1 = 0 | ALK 0 | ARAF 0 | AURKA 0 | AURKB 0 | AURKC 0 | BLK 0 | BMX 0 | BRAF_V600E 0 | BTK 0 | CAMK2A 0 | CAMK2G 0 | CDK10 = 0 | CDK2 = 0 | CDK3 = 0 | CDK4 = 0 | CDK5 = 0

O=C(Nc1ccc2[nH]nc(-c3ccncc3)c2c1)[C@@H]1CCN(CC(=O)N2CCN(c3ccc(-c4ncccn4)cc3)CC2)C1 (2.5 µM)
inactive: ABL1 = 0 | AKT1 = 0 | ALK 0 | ARAF 0 | AURKA 0 | AURKB 0 | AURKC 0 | BLK 0 | BMX 0 | BRAF 0 | BRAF_V600E 0 | BTK 0 | CAMK2A 0 | CAMK2G 0 | CDK10 = 0 | CDK2 = 0 | CDK3 = 0 | CDK4 = 0 | CDK5 = 0 | CDK6 = 0

COc1ccc(C2CC(c3ccccc3)=NN2c2ccc(S(N)(=O)=O)cc2)cc1 (stereo not given) (10 µM)
inactive: ABL1 = 0 | AKT1 = 0 | ALK 0 | ARAF 0 | AURKA 0 | AURKB 0 | AURKC 0 | BLK 0 | BMX 0 | BRAF 0 | BRAF_V600E 0 | BTK 0 | CAMK2A 0 | CAMK2G 0 | CDK10 = 0 | CDK2 = 0 | CDK3 = 0 | CDK4 = 0 | CDK5 = 0 | CDK6 = 0

CC(C)NC(=O)N1CC[C@H](NC2=Nc3cc(F)ccc3N(CC(F)F)c3ccc(Cl)cc32)C1 (10 µM)
inactive: ABL1 = 0 | AKT1 = 0 | ALK 0 | ARAF 0 | AURKA 0 | AURKB 0 | AURKC 0 | BLK 0 | BMX 0 | BRAF 0 | BRAF_V600E 0 | BTK 0 | CAMK2A 0 | CAMK2G 0 | CDK10 = 0 | CDK2 = 0 | CDK3 = 0 | CDK4 = 0 | CDK5 = 0 | CDK6 = 0

O=C(CNC(=O)c1ccc(-c2ccccc2)cc1)NC1CCCc2ccccc21 (stereo not given) [TAO Kinase inhibitor 1] (10 µM)
inactive: ABL1 = 0 | AKT1 = 0 | ALK 0 | ARAF 0 | AURKA 0 | AURKB 0 | AURKC 0 | BLK 0 | BMX 0 | BRAF 0 | BRAF_V600E 0 | BTK 0 | CAMK2A 0 | CAMK2G 0 | CDK10 = 0 | CDK2 = 0 | CDK3 = 0 | CDK4 = 0 | CDK5 = 0 | CDK6 = 0

O=C(Nc1nc2ccccc2[nH]1)c1cccc(-n2cccc2)c1 (10 µM)
inactive: ABL1 = 0 | AKT1 = 0 | ALK 0 | ARAF 0 | AURKA 0 | AURKB 0 | AURKC 0 | BLK 0 | BMX 0 | BRAF 0 | BRAF_V600E 0 | BTK 0 | CAMK2A 0 | CAMK2G 0 | CDK10 = 0 | CDK2 = 0 | CDK3 = 0 | CDK4 = 0 | CDK5 = 0 | CDK6 = 0

O=C1NC(=O)C(=Cc2ccc(-c3ccc(F)cc3)o2)S1 (stereo in doubt) (10 µM)
inactive: ABL1 = 0 | AKT1 = 0 | ALK 0 | ARAF 0 | AURKA 0 | AURKB 0 | AURKC 0 | BLK 0 | BMX 0 | BRAF 0 | BRAF_V600E 0 | BTK 0 | CAMK2A 0 | CAMK2G 0 | CDK10 = 0 | CDK2 = 0 | CDK3 = 0 | CDK4 = 0 | CDK5 = 0 | CDK6 = 0

Quoted from above, two compounds:
COc1ccc(C2CC(c3ccccc3)=NN2c2ccc(S(N)(=O)=O)cc2)cc1 (stereo not given) (10 µM)
inactive: ABL1 = 0 | AKT1 = 0 | ALK 0 | ARAF 0 | AURKA 0 | AURKB 0 | AURKC 0 | BLK 0 | BMX 0 | BRAF 0 | BRAF_V600E 0 | BTK 0 | CAMK2A 0 | CAMK2G 0 | CDK10 = 0 | CDK2 = 0 | CDK3 = 0 | CDK4 = 0 | CDK5 = 0 | CDK6 = 0

CC(C)NC(=O)N1CC[C@H](NC2=Nc3cc(F)ccc3N(CC(F)F)c3ccc(Cl)cc32)C1 (10 µM)
inactive: ABL1 = 0 | AKT1 = 0 | ALK 0 | ARAF 0 | AURKA 0 | AURKB 0 | AURKC 0 | BLK 0 | BMX 0 | BRAF 0 | BRAF_V600E 0 | BTK 0 | CAMK2A 0 | CAMK2G 0 | CDK10 = 0 | CDK2 = 0 | CDK3 = 0 | CDK4 = 0 | CDK5 = 0 | CDK6 = 0

(next part)

COCCOc1cnc(Sc2cc(C)c(-c3csc(NC(=O)c4ccncc4)n3)c(C)c2)cn1 [T-1101 (tosylate)] (2.5 µM)
inactive: ABL1 = 0 | AKT1 = 0 | ALK 0 | ARAF 0 | AURKA 0 | AURKB 0 | AURKC 0 | BLK 0 | BMX 0 | BRAF 0 | BRAF_V600E 0 | BTK 0 | CAMK2A 0 | CAMK2G 0 | CDK10 = 0 | CDK2 = 0 | CDK3 = 0 | CDK4 = 0 | CDK5 = 0 | CDK6 = 0

COc1cc2ncnc(Nc3cccc(Cl)c3)c2cc1OC (10 µM)
inactive: ABL1 = 0 | AKT1 = 0 | ALK 0 | ARAF 0 | AURKA 0 | AURKB 0 | AURKC 0 | BLK 0 | BMX 0 | BRAF 0 | BRAF_V600E 0 | BTK 0 | CAMK2A 0 | CAMK2G 0 | CDK10 = 0 | CDK2 = 0 | CDK3 = 0 | CDK4 = 0 | CDK5 = 0 | CDK6 = 0

Source: the supplement of paper PMC12823440, “Inhibitors supercharge kinase turnover through native proteolytic circuits” (Nature, 2025)
